In test [1] the target is GST-MOZ peptide containing the MYST domain (amino acids 523–759) (human) (UniProt Q92794). Description: pull-down; 5 μl in vitro-translated 35S-Met-labelled protein with 3–5 μg GST fusion protein on Sepharose 4B beads; 50 mM Tris-HCl pH 8.0, 100 mM NaCl, 0.3 mM DTT, 10 mM MgCl2, 10% glycerol, 0.1% NP40; 4°C, 1 hour; five washes; autoradiography; only the target purified.
For test [2], the target named is His-tagged MOZ (monocytic leukemia zinc finger protein) (human) (UniProt Q92794). The experiment in a line: co-IP; HEK293 transiently transfected with His-tagged MOZ, MOZ-TIF2 or vector alone, lysed after 36 hours; anti-His-tag antibody conjugated to agarose, 4°C overnight; washed with PBS 0.5 % NP-40; western with anti-CBP antibody.
The target in test [3] is GST-CBP peptides (amino acids 1680–1892), CH3 domain of CBP (UniProt P45481). The experiment in a line: pull-down; 5 μl in vitro-translated 35S-Met-labelled protein with 3–5 μg GST fusion protein on Sepharose 4B beads; 50 mM Tris-HCl pH 8.0, 100 mM NaCl, 0.3 mM DTT, 10 mM MgCl2, 10% glycerol, 0.1% NP40; 4°C, 1 hour; five washes; autoradiography; only the target purified.
For test [4], the target named is GST tagged C-terminal region of CBP (amino acids 1680 to 2441) (UniProt P45481). The test is described as above.
Test [5] addresses His-tagged MOZ (monocytic leukemia zinc finger protein) (human) (UniProt Q92794). Description: co-IP; data not shown; p300 co-precipitated by wild type MOZ and MOZ-TIF2.
Test [6] addresses GST tagged C-terminal region of CBP (amino acids 1680 to 2441) (UniProt P45481). Description: pull-down; whole cell extract of HEK 293 cells expressing Xpress-tagged MOZ-TIF2 fragments (36 hours) incubated with GST-tagged C terminal of CBP on Glutathione-Sepharose beads; detected with anti-Xpress antibody; only the target purified.

Amino acid sequences for entries named in this document (tags omitted). Chains listed by the source or under a name are the forms on record and can include a tag or linker. Residues count along the entry.
GST tagged C-terminal region of CBP (amino acids 1680 to 2441) (P45481, residues 1680-2441): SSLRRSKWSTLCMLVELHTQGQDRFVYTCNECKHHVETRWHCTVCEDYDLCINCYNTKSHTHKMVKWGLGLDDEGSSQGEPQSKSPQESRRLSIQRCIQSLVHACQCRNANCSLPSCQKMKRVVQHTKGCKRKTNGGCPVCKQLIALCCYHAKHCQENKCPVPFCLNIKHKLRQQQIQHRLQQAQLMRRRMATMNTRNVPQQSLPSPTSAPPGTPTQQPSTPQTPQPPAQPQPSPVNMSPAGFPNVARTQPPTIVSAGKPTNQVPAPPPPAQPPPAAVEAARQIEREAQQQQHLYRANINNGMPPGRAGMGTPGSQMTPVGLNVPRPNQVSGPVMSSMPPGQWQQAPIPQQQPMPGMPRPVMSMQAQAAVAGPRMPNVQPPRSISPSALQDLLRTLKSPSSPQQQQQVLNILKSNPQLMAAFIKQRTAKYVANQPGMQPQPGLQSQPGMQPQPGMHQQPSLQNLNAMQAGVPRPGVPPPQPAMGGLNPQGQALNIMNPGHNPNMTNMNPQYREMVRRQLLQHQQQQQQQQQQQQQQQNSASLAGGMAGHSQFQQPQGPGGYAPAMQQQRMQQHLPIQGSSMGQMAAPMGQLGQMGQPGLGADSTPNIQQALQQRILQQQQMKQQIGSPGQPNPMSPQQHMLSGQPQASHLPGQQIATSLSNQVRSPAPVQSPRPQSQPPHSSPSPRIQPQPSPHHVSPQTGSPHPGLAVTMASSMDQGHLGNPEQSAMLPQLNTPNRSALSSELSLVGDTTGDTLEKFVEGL
GST-CBP peptides (amino acids 1680–1892), CH3 domain of CBP (P45481, residues 1680-1892): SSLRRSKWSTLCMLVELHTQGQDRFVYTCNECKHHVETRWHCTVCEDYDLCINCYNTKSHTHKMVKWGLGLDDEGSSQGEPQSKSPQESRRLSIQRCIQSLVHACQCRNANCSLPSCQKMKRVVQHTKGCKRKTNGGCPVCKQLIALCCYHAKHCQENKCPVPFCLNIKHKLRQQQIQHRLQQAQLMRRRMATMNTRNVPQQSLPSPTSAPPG
UniProt Q92793: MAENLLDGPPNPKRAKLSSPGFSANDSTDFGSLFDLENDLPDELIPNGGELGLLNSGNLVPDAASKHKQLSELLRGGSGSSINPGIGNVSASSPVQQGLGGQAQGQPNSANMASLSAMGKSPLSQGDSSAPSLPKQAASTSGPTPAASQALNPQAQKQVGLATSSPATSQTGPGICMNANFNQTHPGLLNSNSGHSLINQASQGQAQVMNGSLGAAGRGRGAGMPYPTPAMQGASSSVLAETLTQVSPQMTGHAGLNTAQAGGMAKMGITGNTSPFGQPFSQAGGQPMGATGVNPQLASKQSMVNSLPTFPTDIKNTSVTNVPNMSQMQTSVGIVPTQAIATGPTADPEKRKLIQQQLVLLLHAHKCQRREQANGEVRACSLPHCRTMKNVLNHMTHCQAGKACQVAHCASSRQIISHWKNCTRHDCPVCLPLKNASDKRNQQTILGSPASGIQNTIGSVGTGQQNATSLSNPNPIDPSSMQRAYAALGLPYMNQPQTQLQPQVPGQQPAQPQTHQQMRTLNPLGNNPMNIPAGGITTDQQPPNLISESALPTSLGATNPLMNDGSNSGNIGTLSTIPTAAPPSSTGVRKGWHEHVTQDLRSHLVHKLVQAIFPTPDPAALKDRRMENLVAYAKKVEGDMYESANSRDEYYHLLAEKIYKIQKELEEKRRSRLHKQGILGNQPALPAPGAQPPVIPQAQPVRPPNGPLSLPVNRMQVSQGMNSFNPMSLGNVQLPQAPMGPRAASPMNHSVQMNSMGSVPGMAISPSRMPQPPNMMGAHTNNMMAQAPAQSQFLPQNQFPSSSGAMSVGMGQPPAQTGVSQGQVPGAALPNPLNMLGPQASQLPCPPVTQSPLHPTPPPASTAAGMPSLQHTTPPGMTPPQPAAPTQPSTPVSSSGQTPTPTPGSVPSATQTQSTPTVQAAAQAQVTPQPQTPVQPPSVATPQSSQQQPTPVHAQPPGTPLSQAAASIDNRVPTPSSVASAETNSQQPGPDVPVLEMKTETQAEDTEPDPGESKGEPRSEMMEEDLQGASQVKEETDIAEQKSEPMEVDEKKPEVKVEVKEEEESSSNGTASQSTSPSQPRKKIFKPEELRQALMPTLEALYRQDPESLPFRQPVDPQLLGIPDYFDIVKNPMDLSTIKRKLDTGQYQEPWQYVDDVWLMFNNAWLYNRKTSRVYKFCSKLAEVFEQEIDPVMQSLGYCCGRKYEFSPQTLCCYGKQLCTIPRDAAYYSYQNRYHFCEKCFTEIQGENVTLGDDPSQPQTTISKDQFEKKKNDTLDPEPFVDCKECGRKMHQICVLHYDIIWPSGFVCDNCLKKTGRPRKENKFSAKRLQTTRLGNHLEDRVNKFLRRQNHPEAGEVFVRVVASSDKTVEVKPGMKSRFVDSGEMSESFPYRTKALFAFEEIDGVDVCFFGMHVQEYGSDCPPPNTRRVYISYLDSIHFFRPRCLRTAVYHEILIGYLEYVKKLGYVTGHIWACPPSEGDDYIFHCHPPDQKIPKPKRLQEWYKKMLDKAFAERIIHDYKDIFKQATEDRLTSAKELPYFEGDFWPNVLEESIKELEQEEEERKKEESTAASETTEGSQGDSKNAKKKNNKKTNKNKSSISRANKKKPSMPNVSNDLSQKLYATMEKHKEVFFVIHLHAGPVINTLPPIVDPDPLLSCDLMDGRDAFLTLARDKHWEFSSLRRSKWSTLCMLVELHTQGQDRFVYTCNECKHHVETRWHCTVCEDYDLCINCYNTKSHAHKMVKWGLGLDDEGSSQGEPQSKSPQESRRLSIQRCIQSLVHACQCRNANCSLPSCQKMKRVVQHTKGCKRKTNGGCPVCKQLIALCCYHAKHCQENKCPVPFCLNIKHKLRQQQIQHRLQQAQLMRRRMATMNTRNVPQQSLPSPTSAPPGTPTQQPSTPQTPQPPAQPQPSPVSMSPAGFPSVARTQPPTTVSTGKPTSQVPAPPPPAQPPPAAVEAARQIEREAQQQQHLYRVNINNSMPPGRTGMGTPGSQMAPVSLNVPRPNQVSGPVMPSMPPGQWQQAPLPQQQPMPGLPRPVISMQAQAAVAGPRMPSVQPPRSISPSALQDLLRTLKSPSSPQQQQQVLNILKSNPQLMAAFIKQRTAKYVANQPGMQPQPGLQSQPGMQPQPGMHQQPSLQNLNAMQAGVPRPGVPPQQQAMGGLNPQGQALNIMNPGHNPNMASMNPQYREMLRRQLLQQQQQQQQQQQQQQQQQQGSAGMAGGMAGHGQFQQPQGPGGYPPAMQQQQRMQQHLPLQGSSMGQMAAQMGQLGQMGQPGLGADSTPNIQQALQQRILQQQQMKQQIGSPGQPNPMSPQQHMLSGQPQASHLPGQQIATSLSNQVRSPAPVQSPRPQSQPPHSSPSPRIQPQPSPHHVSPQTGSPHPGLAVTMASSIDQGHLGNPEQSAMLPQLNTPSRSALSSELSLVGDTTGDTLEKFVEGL
UniProt Q09472: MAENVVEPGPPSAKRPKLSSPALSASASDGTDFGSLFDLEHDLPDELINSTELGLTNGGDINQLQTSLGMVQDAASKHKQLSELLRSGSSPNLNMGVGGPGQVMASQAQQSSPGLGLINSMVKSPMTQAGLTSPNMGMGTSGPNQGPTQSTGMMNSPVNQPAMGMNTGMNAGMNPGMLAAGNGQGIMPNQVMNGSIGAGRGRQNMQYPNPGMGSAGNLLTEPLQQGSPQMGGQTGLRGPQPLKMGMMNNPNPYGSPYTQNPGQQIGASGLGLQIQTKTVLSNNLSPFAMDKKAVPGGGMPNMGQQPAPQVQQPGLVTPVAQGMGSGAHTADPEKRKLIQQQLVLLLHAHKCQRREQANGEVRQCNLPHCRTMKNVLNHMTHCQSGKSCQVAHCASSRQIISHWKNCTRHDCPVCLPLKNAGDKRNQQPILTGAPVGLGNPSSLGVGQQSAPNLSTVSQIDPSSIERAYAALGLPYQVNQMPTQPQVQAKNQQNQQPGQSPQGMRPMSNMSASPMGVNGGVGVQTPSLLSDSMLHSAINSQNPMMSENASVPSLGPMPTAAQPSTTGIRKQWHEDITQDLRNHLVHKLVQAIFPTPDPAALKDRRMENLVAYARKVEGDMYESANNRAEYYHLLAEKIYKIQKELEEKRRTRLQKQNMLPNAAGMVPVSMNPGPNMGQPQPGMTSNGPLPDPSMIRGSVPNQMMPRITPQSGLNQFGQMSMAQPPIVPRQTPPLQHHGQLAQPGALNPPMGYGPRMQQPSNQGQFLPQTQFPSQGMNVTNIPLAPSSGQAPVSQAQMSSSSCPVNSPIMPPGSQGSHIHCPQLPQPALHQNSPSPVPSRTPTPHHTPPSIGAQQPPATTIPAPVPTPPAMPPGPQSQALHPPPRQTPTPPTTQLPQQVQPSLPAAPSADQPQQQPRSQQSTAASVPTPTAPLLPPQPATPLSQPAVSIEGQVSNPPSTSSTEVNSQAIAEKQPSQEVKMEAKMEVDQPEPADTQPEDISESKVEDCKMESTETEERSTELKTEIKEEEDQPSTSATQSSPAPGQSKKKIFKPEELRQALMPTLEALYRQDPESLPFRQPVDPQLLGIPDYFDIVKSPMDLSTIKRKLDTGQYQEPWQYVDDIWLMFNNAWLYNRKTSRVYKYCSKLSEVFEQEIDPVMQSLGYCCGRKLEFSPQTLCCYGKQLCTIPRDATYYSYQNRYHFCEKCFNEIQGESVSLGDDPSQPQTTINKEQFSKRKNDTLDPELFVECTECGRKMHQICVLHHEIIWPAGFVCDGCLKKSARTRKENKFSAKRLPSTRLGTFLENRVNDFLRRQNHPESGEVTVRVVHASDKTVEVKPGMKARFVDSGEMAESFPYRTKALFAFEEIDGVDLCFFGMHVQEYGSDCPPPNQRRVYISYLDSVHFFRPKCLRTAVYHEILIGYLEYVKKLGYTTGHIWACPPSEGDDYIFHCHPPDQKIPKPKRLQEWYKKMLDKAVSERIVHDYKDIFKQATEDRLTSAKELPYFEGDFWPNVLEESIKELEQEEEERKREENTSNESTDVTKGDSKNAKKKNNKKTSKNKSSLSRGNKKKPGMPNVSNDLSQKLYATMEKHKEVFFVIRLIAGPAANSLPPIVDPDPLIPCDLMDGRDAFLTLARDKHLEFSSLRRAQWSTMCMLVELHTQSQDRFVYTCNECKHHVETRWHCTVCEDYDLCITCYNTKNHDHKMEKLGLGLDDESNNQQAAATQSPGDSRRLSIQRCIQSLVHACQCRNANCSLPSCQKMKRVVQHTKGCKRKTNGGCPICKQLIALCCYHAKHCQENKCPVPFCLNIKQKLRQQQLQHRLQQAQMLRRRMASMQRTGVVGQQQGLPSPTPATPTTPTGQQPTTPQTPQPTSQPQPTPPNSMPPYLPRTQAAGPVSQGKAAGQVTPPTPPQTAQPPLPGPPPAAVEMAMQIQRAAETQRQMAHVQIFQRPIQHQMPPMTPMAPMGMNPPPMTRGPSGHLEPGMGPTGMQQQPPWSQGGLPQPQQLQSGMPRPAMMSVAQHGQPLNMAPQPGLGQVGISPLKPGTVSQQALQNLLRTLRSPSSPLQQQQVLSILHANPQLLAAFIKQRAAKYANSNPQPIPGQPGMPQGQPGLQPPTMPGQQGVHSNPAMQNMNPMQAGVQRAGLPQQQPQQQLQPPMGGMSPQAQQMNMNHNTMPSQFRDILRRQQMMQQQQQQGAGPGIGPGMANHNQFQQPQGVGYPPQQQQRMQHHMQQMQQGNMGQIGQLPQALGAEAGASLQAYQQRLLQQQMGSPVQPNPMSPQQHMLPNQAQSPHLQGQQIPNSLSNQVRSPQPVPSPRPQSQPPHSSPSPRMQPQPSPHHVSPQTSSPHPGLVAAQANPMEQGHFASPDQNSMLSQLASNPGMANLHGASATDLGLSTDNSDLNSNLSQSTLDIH

No constants are given. Whether binding was seen depends on the method and setting. Binding seen in cells or lysates may run through a third protein. Some entries that bind do so weakly or less than the wild type. For part of these data: Tags and fused reporters may be left off the sequences shown.

Take “35S-methionine labeled CH3 domain peptides of CBP (amino acids 1680–1892) (from UniProt P45481 1680-1892) (domain or fragment)”: in test [1], the binding entry is listed as “binds”. As to “CBP (cAMP-response element binding protein-binding protein), endogenous in HEK293 (from UniProt Q92793 1-2442)”, the binding result in test [2] is listed as “binds”. With “MOZ-TIF2 1–759 (MOZ portion of MOZ-TIF2), 35S-methionine labelled (from UniProt Q92794 1-759) (domain or fragment)”, the binding result in test [3] and in test [4] was “binds” in each case. Consider “p300, a CBP-like histone acetylase (from UniProt Q09472 1-2414)”, for which the binding entry in test [5] is “binds”.

B1: Xpress-tagged MT2 1–907 del 193–346/486/764 (domain or fragment, UniProt Q92794)
chain: MVKLANPLYTEWILEAIKKVKKQKQRPSEERICNAVSSSHGLDRKTVLEQLELSVKDGTILKVSNKGLNSYKDPDNPGRIALPKPRNHGKLDNKQNVDWNKLIKRAVEGLAESGGSTLKSIERFLKGQKDVSALFGGSAASGFHQQLRLAIKRAIGHGRLLKDGPLYRLNTKATNVDGKESCESLSCLPPVSTVSKGPFSKVRTGPGRGRKRKITLSSQSASSSSEEGYLERIDGLDFCRDSNVSLKFNKKTKGLIDGLTKFFTPSPDGRKARGEVVDYSEQYRIRKRGNRKSSTSDWPTDNQDGWDGKQENEERLFGSQEIMTEKDMELFRPVDVDPECLRWTPVIVSNSVVSEEEEEEAEEGENEEPQCQERELEISVGKSVSHENKEQDSYSVESEKKPEVMAPVSSTRLSKQVLPHDSLPANSQPSRRGRWGRKNRKTQERFGDKDSKLLLEETSSAPQEQYGECGEKSE
Take B1: the binding result in test [6] is recorded as “binds”.
